Results published in patent US20110243924A1, “NOVEL METHODS” (priority 2007, published 2011).

Assay: In vitro stability in human plasma
Details: 36° C., 5 μg/ml, 60 min

Row | SMILES | Plasma degradation [%]
1 | CC(C)[N+]1(C)[C@@H]2CC[C@H]1C[C@@H](OC(=O)C(CO)c1ccccc1)C2 (some centres unmarked) [ipratropium, [8-methyl-8-(1-methylethyl)-8-azoniabicyclo[3.2.1]oct-3-yl]3-hydroxy-2-phenyl-propanoate] | 0
2 | C[N+]1(C)CCC(OC(=O)C(O)(c2ccccc2)C2CCCC2)C1 (centres unmarked) [glycolpyrrolate, (1,1-dimethyl-2,3,4,5-tetrahydropyrrol-3-yl) 2-cyclopentyl-2-hydroxy-2-phenyl-acetate] | 9
